# Source: the supplement of paper PMC12823440, “Inhibitors supercharge kinase turnover through native proteolytic circuits” (Nature, 2025)
# The chains behind the UniProt entries cited, without tags or fusion partners. Where a name states a change or a piece, a line headed by the entry shows the natural chain unless it says otherwise.
# UniProt O75460: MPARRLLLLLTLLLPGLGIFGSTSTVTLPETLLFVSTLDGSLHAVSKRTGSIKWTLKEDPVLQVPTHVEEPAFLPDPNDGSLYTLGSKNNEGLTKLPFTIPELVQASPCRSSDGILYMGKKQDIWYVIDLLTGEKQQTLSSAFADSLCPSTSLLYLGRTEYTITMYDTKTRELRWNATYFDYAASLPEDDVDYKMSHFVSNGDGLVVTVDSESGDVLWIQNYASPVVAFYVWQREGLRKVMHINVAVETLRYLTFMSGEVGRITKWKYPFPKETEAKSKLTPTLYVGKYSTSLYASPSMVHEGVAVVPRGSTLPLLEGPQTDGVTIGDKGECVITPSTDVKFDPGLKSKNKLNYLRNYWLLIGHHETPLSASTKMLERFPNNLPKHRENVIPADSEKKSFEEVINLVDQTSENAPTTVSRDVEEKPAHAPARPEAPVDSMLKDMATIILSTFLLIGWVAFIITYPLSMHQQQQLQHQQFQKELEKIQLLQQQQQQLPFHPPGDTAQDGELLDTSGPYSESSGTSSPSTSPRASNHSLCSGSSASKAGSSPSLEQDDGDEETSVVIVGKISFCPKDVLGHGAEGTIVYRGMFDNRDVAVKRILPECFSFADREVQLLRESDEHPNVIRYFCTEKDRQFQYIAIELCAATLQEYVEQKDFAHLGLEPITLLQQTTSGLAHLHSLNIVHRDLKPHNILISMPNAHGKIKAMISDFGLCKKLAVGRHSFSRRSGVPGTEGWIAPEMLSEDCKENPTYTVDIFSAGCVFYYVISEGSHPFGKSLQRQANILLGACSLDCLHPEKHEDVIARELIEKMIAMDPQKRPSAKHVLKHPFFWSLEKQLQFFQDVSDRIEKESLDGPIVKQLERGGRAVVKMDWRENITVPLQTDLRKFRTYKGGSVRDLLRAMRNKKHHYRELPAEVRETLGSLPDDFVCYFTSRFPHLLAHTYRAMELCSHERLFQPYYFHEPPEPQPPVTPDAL
# UniProt P11362, whole entry, looked up: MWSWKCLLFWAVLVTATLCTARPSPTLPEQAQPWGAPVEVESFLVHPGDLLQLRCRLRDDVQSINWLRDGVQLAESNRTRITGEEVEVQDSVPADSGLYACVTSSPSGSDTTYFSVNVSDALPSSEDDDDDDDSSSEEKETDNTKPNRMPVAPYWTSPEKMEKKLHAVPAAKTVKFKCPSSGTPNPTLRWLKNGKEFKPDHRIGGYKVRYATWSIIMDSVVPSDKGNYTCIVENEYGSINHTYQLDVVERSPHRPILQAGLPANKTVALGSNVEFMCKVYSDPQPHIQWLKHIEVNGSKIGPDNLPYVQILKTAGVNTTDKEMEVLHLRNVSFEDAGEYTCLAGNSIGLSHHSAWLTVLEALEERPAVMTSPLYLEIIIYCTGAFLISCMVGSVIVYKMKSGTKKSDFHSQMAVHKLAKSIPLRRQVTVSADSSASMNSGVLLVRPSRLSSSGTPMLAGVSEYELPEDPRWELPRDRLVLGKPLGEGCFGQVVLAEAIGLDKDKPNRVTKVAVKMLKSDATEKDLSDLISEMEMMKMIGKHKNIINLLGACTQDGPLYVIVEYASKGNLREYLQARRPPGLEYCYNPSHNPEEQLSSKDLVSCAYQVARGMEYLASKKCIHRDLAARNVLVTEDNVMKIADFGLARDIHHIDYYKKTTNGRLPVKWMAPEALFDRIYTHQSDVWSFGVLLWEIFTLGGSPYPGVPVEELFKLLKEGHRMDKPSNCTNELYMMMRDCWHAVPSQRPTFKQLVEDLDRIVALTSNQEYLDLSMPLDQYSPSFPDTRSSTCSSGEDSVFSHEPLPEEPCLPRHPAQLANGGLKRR
# UniProt P36888, whole entry: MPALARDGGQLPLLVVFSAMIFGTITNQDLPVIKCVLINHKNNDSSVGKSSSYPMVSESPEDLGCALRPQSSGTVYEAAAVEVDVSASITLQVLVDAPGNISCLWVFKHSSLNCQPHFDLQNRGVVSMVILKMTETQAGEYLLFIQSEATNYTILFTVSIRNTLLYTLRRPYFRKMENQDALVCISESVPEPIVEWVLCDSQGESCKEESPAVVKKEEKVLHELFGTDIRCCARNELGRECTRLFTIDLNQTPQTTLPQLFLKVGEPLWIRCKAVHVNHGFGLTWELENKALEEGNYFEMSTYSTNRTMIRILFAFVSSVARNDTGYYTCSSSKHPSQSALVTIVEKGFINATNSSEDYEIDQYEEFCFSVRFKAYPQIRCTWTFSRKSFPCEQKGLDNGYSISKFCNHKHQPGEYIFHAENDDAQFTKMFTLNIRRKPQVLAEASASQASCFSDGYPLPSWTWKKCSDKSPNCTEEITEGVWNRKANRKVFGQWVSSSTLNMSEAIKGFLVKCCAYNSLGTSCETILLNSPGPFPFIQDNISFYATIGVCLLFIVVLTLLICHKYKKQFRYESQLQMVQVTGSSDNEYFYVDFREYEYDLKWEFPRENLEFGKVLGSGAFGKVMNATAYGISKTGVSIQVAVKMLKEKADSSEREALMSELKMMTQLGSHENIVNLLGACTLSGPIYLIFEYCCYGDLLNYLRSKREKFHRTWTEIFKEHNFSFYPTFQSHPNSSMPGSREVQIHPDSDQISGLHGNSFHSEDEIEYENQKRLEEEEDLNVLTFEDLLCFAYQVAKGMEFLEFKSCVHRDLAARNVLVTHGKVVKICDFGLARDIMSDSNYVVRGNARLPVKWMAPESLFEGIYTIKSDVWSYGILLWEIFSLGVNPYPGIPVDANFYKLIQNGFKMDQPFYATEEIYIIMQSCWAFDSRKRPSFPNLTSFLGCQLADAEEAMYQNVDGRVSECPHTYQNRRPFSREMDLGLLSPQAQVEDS
# UniProt P49840: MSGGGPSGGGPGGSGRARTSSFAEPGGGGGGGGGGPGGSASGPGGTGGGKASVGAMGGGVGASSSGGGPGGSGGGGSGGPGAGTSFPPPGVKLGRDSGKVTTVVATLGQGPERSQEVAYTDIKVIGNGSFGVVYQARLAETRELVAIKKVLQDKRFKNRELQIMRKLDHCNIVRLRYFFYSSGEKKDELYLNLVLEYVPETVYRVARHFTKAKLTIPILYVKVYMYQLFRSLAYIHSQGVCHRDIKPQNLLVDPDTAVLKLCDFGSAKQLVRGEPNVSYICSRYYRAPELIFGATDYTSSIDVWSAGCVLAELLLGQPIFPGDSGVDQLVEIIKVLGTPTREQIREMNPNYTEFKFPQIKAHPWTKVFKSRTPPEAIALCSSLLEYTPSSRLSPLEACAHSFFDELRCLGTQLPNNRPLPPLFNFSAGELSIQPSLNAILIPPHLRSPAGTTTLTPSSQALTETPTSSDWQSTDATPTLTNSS
# UniProt Q9Y616: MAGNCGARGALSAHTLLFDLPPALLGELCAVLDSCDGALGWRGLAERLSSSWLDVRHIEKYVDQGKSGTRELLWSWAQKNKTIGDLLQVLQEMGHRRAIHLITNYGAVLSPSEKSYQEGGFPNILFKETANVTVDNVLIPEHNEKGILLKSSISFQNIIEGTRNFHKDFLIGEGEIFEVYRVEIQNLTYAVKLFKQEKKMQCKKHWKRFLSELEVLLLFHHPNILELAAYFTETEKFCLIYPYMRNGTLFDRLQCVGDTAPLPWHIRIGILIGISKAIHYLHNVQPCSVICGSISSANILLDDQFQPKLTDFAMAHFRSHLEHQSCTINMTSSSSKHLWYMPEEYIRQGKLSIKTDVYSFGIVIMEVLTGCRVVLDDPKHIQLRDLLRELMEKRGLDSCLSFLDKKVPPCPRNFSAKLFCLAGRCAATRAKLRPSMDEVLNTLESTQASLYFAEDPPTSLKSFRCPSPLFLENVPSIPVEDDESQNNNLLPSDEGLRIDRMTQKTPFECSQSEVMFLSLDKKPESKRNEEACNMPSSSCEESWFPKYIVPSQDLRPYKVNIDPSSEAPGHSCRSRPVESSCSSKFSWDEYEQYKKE
# UniProt P23458: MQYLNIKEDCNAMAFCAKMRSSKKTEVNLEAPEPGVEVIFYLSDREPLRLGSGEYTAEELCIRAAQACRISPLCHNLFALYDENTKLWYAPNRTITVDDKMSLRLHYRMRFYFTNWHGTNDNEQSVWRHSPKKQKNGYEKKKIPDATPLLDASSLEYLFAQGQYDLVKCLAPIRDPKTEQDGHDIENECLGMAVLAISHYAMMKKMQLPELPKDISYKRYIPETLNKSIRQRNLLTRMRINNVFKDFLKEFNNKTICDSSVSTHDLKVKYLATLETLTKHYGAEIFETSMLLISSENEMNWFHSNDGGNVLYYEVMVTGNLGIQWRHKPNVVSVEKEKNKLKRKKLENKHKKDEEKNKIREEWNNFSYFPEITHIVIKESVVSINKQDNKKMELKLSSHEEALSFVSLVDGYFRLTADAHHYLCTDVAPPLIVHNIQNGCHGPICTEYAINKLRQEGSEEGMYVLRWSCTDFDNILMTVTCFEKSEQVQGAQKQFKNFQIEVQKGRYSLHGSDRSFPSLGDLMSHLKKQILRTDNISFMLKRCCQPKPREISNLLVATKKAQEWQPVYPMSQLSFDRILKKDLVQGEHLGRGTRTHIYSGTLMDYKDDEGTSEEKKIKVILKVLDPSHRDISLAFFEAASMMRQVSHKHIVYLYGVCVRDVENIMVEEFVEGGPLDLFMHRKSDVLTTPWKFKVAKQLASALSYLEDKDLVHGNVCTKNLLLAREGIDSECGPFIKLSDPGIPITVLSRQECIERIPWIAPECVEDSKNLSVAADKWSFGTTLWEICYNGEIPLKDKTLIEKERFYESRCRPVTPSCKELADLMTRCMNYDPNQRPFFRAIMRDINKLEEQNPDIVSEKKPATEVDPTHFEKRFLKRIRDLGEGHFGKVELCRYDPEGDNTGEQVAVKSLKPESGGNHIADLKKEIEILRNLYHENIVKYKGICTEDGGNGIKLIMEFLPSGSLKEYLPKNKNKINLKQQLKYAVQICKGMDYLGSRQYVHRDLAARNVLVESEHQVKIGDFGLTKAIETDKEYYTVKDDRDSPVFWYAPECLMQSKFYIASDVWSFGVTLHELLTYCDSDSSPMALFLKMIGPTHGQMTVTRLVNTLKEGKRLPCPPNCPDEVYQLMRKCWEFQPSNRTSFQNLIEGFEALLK
# UniProt Q8IWU2: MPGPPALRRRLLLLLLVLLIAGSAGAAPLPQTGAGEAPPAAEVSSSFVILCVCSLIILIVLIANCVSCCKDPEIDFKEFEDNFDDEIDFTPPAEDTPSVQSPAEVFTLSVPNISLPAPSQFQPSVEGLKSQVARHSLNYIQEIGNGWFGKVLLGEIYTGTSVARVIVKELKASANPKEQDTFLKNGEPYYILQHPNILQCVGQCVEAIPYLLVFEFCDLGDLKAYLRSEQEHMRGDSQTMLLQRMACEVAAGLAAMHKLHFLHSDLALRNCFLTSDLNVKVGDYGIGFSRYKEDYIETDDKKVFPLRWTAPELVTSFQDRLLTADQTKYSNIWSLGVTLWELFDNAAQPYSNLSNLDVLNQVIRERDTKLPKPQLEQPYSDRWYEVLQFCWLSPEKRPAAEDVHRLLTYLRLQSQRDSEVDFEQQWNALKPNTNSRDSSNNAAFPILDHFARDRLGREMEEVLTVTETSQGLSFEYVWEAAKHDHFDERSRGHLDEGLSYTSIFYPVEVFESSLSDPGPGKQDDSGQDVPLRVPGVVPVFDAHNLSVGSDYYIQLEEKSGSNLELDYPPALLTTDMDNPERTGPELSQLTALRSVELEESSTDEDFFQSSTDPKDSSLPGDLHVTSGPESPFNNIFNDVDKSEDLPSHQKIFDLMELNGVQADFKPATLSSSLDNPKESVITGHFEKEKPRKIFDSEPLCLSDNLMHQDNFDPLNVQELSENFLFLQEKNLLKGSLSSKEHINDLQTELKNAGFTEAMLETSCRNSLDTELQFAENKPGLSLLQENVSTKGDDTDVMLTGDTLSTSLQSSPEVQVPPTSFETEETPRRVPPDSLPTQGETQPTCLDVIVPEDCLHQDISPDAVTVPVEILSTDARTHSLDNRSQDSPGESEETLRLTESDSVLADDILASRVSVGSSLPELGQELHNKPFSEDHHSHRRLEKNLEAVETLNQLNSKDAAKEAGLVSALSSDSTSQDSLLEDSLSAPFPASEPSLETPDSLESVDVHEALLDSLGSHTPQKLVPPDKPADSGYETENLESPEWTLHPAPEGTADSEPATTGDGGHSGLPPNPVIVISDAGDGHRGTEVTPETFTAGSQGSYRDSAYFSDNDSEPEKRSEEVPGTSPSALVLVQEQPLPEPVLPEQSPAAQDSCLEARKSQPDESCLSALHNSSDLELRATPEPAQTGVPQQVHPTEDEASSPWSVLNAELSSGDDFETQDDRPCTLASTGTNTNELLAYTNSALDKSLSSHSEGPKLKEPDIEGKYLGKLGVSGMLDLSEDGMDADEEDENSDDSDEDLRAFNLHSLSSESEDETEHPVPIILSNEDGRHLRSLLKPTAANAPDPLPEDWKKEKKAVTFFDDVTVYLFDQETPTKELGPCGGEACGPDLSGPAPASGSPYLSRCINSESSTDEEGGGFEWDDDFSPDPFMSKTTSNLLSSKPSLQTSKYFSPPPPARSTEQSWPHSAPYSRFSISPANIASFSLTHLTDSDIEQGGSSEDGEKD
# The other results are listed elsewhere or left out. Hit calls seldom repeat between salt and free forms of one compound.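 Kinases, fused to nanoluciferase, were expressed in K562 cells; luminescence was measured every 4 h from 2 to 18 h as percent of control (DMSO = 100%, positive control = 0%). A time point is decreased if signal falls significantly (2 sigma). Hits were called by the authors by a rule that is not shown; the count of time points alone does not decide it.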
# How the values were obtained:
# Assay in all cases: kinase-Nluc reporter destabilization hit call (1 = scored as downregulated) (binary); higher = compound decreases kinase abundance
# Settings in all cases: K562; 2-18 h
# [1] = molecular target: ERN1 (UniProt O75460)
# [2] = molecular target: FGFR1 (UniProt P11362)
# [3] = molecular target: FGFR2 (UniProt P21802)
# [4] = molecular target: FGFR3 (UniProt P22607)
# [5] = molecular target: FGR (UniProt P09769)
# [6] = molecular target: FLT3 (UniProt P36888)
# [7] = molecular target: FYN (UniProt P06241)
# [8] = molecular target: GSK3A (UniProt P49840)
# [9] = molecular target: HER2 (UniProt P04626)
# [10] = molecular target: INSRR (UniProt P14616)
# [11] = molecular target: IRAK3 (UniProt Q9Y616)
# [12] = molecular target: JAK1 (UniProt P23458)
# [13] = molecular target: LIMK1 (UniProt P53667)
# [14] = molecular target: LIMK2 (UniProt P53671)
# [15] = molecular target: LMTK2 (UniProt Q8IWU2)
# [16] = molecular target: LYN (UniProt P07948)
# [17] = molecular target: MAP2K1 (UniProt Q02750)
# [18] = molecular target: MAP2K2 (UniProt P36507)
# [19] = molecular target: MAP4K2 (UniProt Q12851)
# [20] = molecular target: LCK (UniProt P06239)
SMILES,kinase-Nluc reporter destabilization hit call [1],kinase-Nluc reporter destabilization hit call [2],kinase-Nluc reporter destabilization hit call [3],kinase-Nluc reporter destabilization hit call [4],kinase-Nluc reporter destabilization hit call [5],kinase-Nluc reporter destabilization hit call [6],kinase-Nluc reporter destabilization hit call [7],kinase-Nluc reporter destabilization hit call [8],kinase-Nluc reporter destabilization hit call [9],kinase-Nluc reporter destabilization hit call [10],kinase-Nluc reporter destabilization hit call [11],kinase-Nluc reporter destabilization hit call [12],kinase-Nluc reporter destabilization hit call [13],kinase-Nluc reporter destabilization hit call [14],kinase-Nluc reporter destabilization hit call [15],kinase-Nluc reporter destabilization hit call [16],kinase-Nluc reporter destabilization hit call [17],kinase-Nluc reporter destabilization hit call [18],kinase-Nluc reporter destabilization hit call [19],kinase-Nluc reporter destabilization hit call [20]
Cc1ccc(NC(=O)c2cccc(N(C)C)c2)cc1NC(=O)c1ccc(O)cc1 (10 µM),inactive: 0,inactive: 0,inactive: 0,inactive: 0,inactive: 0,inactive: 0,inactive: 0,inactive: 0,inactive: 0,inactive: 0,inactive: 0,inactive: 0,inactive: 0,inactive: 0,inactive: 0,inactive: 0,inactive: 0,inactive: 0,inactive: 0,
CCN1CCN(Cc2ccc(C(=O)Nc3ccc(C)c(Oc4ccc5c(c4)CC(=O)N5)c3)cc2C(F)(F)F)CC1 (2.5 µM),inactive: 0,inactive: 0,inactive: 0,inactive: 0,inactive: 0,inactive: 0,inactive: 0,inactive: 0,inactive: 0,inactive: 0,inactive: 0,inactive: 0,inactive: 0,inactive: 0,inactive: 0,inactive: 0,inactive: 0,inactive: 0,inactive: 0,inactive: 0
Oc1ccc(-c2nc(-c3ccc(F)cc3)c(-c3ccncc3)[nH]2)cc1 (2.5 µM),inactive: 0,inactive: 0,inactive: 0,inactive: 0,inactive: 0,inactive: 0,inactive: 0,inactive: 0,inactive: 0,inactive: 0,inactive: 0,inactive: 0,inactive: 0,inactive: 0,inactive: 0,inactive: 0,inactive: 0,inactive: 0,inactive: 0,inactive: 0
C[C@]1(O)C[C@@H](c2nc(-c3ccc4ccc(-c5ccccc5)nc4c3)c3c(N)nccn32)C1 [Linsitinib] (2.5 µM),inactive: 0,inactive: 0,inactive: 0,inactive: 0,inactive: 0,inactive: 0,inactive: 0,inactive: 0,inactive: 0,inactive: 0,inactive: 0,inactive: 0,inactive: 0,inactive: 0,inactive: 0,inactive: 0,inactive: 0,inactive: 0,inactive: 0,inactive: 0
CCN(CC)CCCCNc1ncc2cc(-c3c(Cl)cccc3Cl)c(NC(=O)NC(C)(C)C)nc2n1 (2.5 µM),inactive: 0,inactive: 0,inactive: 0,inactive: 0,inactive: 0,inactive: 0,inactive: 0,inactive: 0,inactive: 0,inactive: 0,inactive: 0,inactive: 0,inactive: 0,inactive: 0,inactive: 0,inactive: 0,inactive: 0,inactive: 0,inactive: 0,inactive: 0
CN1CCN(c2ccc(Nc3cc(-c4cccc(-n5ccc6cc(C7CC7)cc(F)c6c5=O)c4CO)cn(C)c3=O)nc2)CC1 (2.5 µM),inactive: 0,inactive: 0,inactive: 0,inactive: 0,inactive: 0,inactive: 0,inactive: 0,inactive: 0,inactive: 0,inactive: 0,inactive: 0,inactive: 0,inactive: 0,inactive: 0,inactive: 0,inactive: 0,inactive: 0,inactive: 0,inactive: 0,inactive: 0
Cc1cc(C(=O)Nc2cccc(C(=O)Nc3cccc(C(F)(F)F)c3)c2)on1 (10 µM),inactive: 0,inactive: 0,inactive: 0,inactive: 0,inactive: 0,inactive: 0,inactive: 0,inactive: 0,inactive: 0,inactive: 0,inactive: 0,inactive: 0,,,inactive: 0,inactive: 0,inactive: 0,inactive: 0,inactive: 0,inactive: 0
N#CC(=Cc1ccc(O)c(O)c1)C(=O)NCc1ccccc1 (mixture of isomers) (10 µM),inactive: 0,inactive: 0,inactive: 0,inactive: 0,inactive: 0,inactive: 0,inactive: 0,inactive: 0,inactive: 0,inactive: 0,inactive: 0,inactive: 0,inactive: 0,inactive: 0,inactive: 0,inactive: 0,inactive: 0,inactive: 0,inactive: 0,inactive: 0
CN1CCN(C2CCN(C(=O)Nc3cc(Oc4ccc(NC(=O)C5(C(=O)Nc6ccc(F)cc6)CC5)c(F)c4)ccn3)CC2)CC1 [Golvatinib] (2.5 µM),inactive: 0,inactive: 0,inactive: 0,inactive: 0,inactive: 0,inactive: 0,inactive: 0,inactive: 0,inactive: 0,inactive: 0,inactive: 0,inactive: 0,inactive: 0,inactive: 0,inactive: 0,inactive: 0,inactive: 0,inactive: 0,inactive: 0,inactive: 0
Cc1[nH]c(/C=C2\C(=O)Nc3ccc(S(=O)(=O)Cc4c(Cl)cccc4Cl)cc32)c(C)c1C(=O)N1CCC[C@@H]1CN1CCCC1 (2.5 µM),inactive: 0,inactive: 0,inactive: 0,inactive: 0,inactive: 0,inactive: 0,inactive: 0,inactive: 0,inactive: 0,inactive: 0,inactive: 0,inactive: 0,inactive: 0,inactive: 0,inactive: 0,inactive: 0,inactive: 0,inactive: 0,inactive: 0,inactive: 0
CCOc1ccn(-c2ccc(F)cc2)c(=O)c1C(=O)Nc1ccc(Oc2ccnc(N)c2Cl)c(F)c1 (10 µM),inactive: 0,inactive: 0,inactive: 0,inactive: 0,inactive: 0,inactive: 0,inactive: 0,inactive: 0,inactive: 0,active: 1,inactive: 0,inactive: 0,inactive: 0,inactive: 0,inactive: 0,inactive: 0,inactive: 0,inactive: 0,inactive: 0,
N#Cc1ccc2[nH]c(O)c(-c3ccc(CN4CCOCC4)cn3)c2c1 (10 µM),inactive: 0,inactive: 0,inactive: 0,inactive: 0,inactive: 0,inactive: 0,inactive: 0,inactive: 0,inactive: 0,inactive: 0,inactive: 0,inactive: 0,inactive: 0,inactive: 0,inactive: 0,inactive: 0,inactive: 0,inactive: 0,inactive: 0,inactive: 0
CC(=O)NCC(=O)N1[C@@H]2CC[C@H]1c1ccc(Nc3ncc(C(F)(F)F)c(NC4CCC4)n3)cc12 (2.5 µM),inactive: 0,inactive: 0,inactive: 0,inactive: 0,inactive: 0,inactive: 0,inactive: 0,inactive: 0,inactive: 0,inactive: 0,inactive: 0,inactive: 0,inactive: 0,inactive: 0,inactive: 0,inactive: 0,inactive: 0,inactive: 0,inactive: 0,inactive: 0
O=C(NOC[C@H](O)CO)c1ccc(F)c(F)c1Nc1ccc(I)cc1F (2.5 µM),inactive: 0,inactive: 0,inactive: 0,inactive: 0,inactive: 0,inactive: 0,inactive: 0,inactive: 0,inactive: 0,inactive: 0,inactive: 0,inactive: 0,inactive: 0,inactive: 0,inactive: 0,inactive: 0,,inactive: 0,inactive: 0,inactive: 0
CC(C)CC(=O)Nc1n[nH]c2c1CN(C(=O)C1CCN(C)CC1)C2(C)C (2.5 µM),inactive: 0,inactive: 0,inactive: 0,inactive: 0,inactive: 0,inactive: 0,inactive: 0,inactive: 0,inactive: 0,inactive: 0,inactive: 0,inactive: 0,inactive: 0,inactive: 0,inactive: 0,inactive: 0,inactive: 0,inactive: 0,inactive: 0,
COc1ccc(F)c(F)c1C(=O)c1cnc(NC2CCN(S(C)(=O)=O)CC2)nc1N (2.5 µM),inactive: 0,inactive: 0,inactive: 0,inactive: 0,inactive: 0,inactive: 0,inactive: 0,inactive: 0,inactive: 0,inactive: 0,inactive: 0,inactive: 0,inactive: 0,inactive: 0,inactive: 0,inactive: 0,inactive: 0,inactive: 0,inactive: 0,inactive: 0
O=c1oc2c(O)c(O)cc3c(=O)oc4c(O)c(O)cc1c4c23 [Ellagic acid] (10 µM),inactive: 0,inactive: 0,inactive: 0,inactive: 0,inactive: 0,inactive: 0,inactive: 0,inactive: 0,inactive: 0,inactive: 0,inactive: 0,inactive: 0,inactive: 0,inactive: 0,inactive: 0,inactive: 0,inactive: 0,inactive: 0,inactive: 0,inactive: 0

# 2 neighbouring records already listed, for reference:
SMILES,kinase-Nluc reporter destabilization hit call [1],kinase-Nluc reporter destabilization hit call [2],kinase-Nluc reporter destabilization hit call [3],kinase-Nluc reporter destabilization hit call [4],kinase-Nluc reporter destabilization hit call [5],kinase-Nluc reporter destabilization hit call [6],kinase-Nluc reporter destabilization hit call [7],kinase-Nluc reporter destabilization hit call [8],kinase-Nluc reporter destabilization hit call [9],kinase-Nluc reporter destabilization hit call [10],kinase-Nluc reporter destabilization hit call [11],kinase-Nluc reporter destabilization hit call [12],kinase-Nluc reporter destabilization hit call [13],kinase-Nluc reporter destabilization hit call [14],kinase-Nluc reporter destabilization hit call [15],kinase-Nluc reporter destabilization hit call [16],kinase-Nluc reporter destabilization hit call [17],kinase-Nluc reporter destabilization hit call [18],kinase-Nluc reporter destabilization hit call [19],kinase-Nluc reporter destabilization hit call [20]
COc1ccc(F)c(F)c1C(=O)c1cnc(NC2CCN(S(C)(=O)=O)CC2)nc1N (2.5 µM),inactive: 0,inactive: 0,inactive: 0,inactive: 0,inactive: 0,inactive: 0,inactive: 0,inactive: 0,inactive: 0,inactive: 0,inactive: 0,inactive: 0,inactive: 0,inactive: 0,inactive: 0,inactive: 0,inactive: 0,inactive: 0,inactive: 0,inactive: 0
O=c1oc2c(O)c(O)cc3c(=O)oc4c(O)c(O)cc1c4c23 [Ellagic acid] (10 µM),inactive: 0,inactive: 0,inactive: 0,inactive: 0,inactive: 0,inactive: 0,inactive: 0,inactive: 0,inactive: 0,inactive: 0,inactive: 0,inactive: 0,inactive: 0,inactive: 0,inactive: 0,inactive: 0,inactive: 0,inactive: 0,inactive: 0,inactive: 0
